This note sets out measurements from patent publication US10525115B2 (Immatics Biotechnologies GmbH, priority 2014, dated 2020).

For series [1], the system named is cancer tissues in comparison to non-cancerous tissues and organs. The series is described as follows: Presentation profile / over-presentation by label-free LC-MS (XPRESIDENT), tumor versus normal tissues, other proliferative diseases. The arrangement: species or system human. The following applies: other proliferative diseases / organs (other than AML) that over- or exclusively present the peptide; Table 5.

In the next series the test system is primary AML samples. The series is described as follows: HLA class II ligandome analysis (LC-MS/MS) of primary AML samples. The arrangement: species or system human. The following applies: HLA class II ligandome, AML patients n=12.

On to “522 (GDKVYVHLKNLASRPY; listed as Homo sapiens) [compound 522]”, for which the “Proliferative disease and location thereof” value in series [1] is “kidney, clear cell renal cell carcinoma, liver, hepatocellular carcinoma”. For the same substance, the “Number of positive AMLs” value with primary AML samples was found to be 1.

For “523 (LDDNIKTYSDHPEK; listed as Homo sapiens) [compound 523]”, in series [1], the “Proliferative disease and location thereof” value was “kidney, clear cell renal cell carcinoma, liver, hepatocellular carcinoma”. Also, in the series with primary AML samples, the “Number of positive AMLs” value is recorded as 1.

With “524 (TGDKVYVHLKNLASRPY; listed as Homo sapiens) [compound 524]”, in series [1], the “Proliferative disease and location thereof” value is given as “kidney, clear cell renal cell carcinoma, liver, hepatocellular carcinoma”. Moreover, the “Number of positive AMLs” value with primary AML samples is listed as 1.

On to “525 (VYVHLKNLASRPY; listed as Homo sapiens) [compound 525]”, for which, in series [1], the “Proliferative disease and location thereof” value is “kidney, clear cell renal cell carcinoma, liver, hepatocellular carcinoma”. For the same substance, the “Number of positive AMLs” value in the series on primary AML samples is listed as 1.

“526 (KTSRLPIIDVAPLDVGAPD; listed as Homo sapiens) [compound 526]”: in series [1], the “Proliferative disease and location thereof” value is on record as “pancreas, adenocarcinoma, chondrosarcoma”. In the series on primary AML samples, the “Number of positive AMLs” value turned out to be 1.

On to “528 (LPIIDVAPLDVGAPD; listed as Homo sapiens) [compound 528]”, for which the “Proliferative disease and location thereof” value in series [1] is given as “pancreas, adenocarcinoma, chondrosarcoma”. The “Number of positive AMLs” value in the series on primary AML samples worked out at 1.

Turning to “529 (RLPIIDVAPLDVGAPD; listed as Homo sapiens) [compound 529]”, the “Proliferative disease and location thereof” value in series [1] is “pancreas, adenocarcinoma, chondrosarcoma”. Also, the “Number of positive AMLs” value in the series on primary AML samples turned out to be 3.

As to “530 (RLPIIDVAPLDVGAPDQE; listed as Homo sapiens) [compound 530]”, the “Proliferative disease and location thereof” value in series [1] is reported as “pancreas, adenocarcinoma, chondrosarcoma”. Further, in the series on primary AML samples, the “Number of positive AMLs” value worked out at 2.

With “531 (SRLPIIDVAPLDVGAPD; listed as Homo sapiens) [compound 531]”, the “Proliferative disease and location thereof” value in series [1] is reported as “pancreas, adenocarcinoma, chondrosarcoma”. The “Number of positive AMLs” value in the series with primary AML samples amounted to 1.

Regarding “532 (SRLPIIDVAPLDVGAPDQE; listed as Homo sapiens) [compound 532]”, the “Proliferative disease and location thereof” value in series [1] was “pancreas, adenocarcinoma, chondrosarcoma”. Further, the “Number of positive AMLs” value in the series on primary AML samples worked out at 1.

Turning to “533 (TSRLPIIDVAPLDVGAPD; listed as Homo sapiens) [compound 533]”, in series [1], the “Proliferative disease and location thereof” value was “pancreas, adenocarcinoma, chondrosarcoma”. Besides, the “Number of positive AMLs” value with primary AML samples is given as 1.

As to “535 (DTSYVSLKAPLT; listed as Homo sapiens) [compound 535]”, the “Proliferative disease and location thereof” value in series [1] is “liver, hepatocellular carcinoma, cancer”. Further, the “Number of positive AMLs” value in the series on primary AML samples was determined as 2.

In the case of “536 (DTSYVSLKAPLTKP; listed as Homo sapiens) [compound 536]”, the “Proliferative disease and location thereof” value in series [1] is “liver, hepatocellular carcinoma, cancer”. The “Number of positive AMLs” value in the series with primary AML samples is 1.

With “537 (DTSYVSLKAPLTKPL; listed as Homo sapiens) [compound 537]”, in series [1], the “Proliferative disease and location thereof” value is reported as “liver, hepatocellular carcinoma, cancer”. Further, the “Number of positive AMLs” value in the series with primary AML samples worked out at 1.

Regarding “538 (ESDTSYVSLKAPLT; listed as Homo sapiens) [compound 538]”, the “Proliferative disease and location thereof” value in series [1] is given as “liver, hepatocellular carcinoma, cancer”. Also, the “Number of positive AMLs” value with primary AML samples is recorded as 2.

Regarding “539 (ESDTSYVSLKAPLTKPL; listed as Homo sapiens) [compound 539]”, in series [1], the “Proliferative disease and location thereof” value is “liver, hepatocellular carcinoma, cancer”. In addition, the “Number of positive AMLs” value in the series on primary AML samples is on record as 1.

For the substance “540 (SDTSYVSLKAPLT; listed as Homo sapiens) [compound 540]”, the “Proliferative disease and location thereof” value in series [1] is reported as “liver, hepatocellular carcinoma, cancer”. Besides, the “Number of positive AMLs” value in the series on primary AML samples came to 3.

For “541 (SDTSYVSLKAPLTKP; listed as Homo sapiens) [compound 541]”, the “Proliferative disease and location thereof” value in series [1] is “liver, hepatocellular carcinoma, cancer”. Moreover, the “Number of positive AMLs” value with primary AML samples was 2.

Take “542 (SDTSYVSLKAPLTKPL; listed as Homo sapiens) [compound 542]”: the “Proliferative disease and location thereof” value in series [1] is reported as “liver, hepatocellular carcinoma, cancer”. The “Number of positive AMLs” value in the series on primary AML samples came to 2.

Turning to “543 (DPASFRAAIGLLARH; listed as Homo sapiens) [compound 543]”, the “Proliferative disease and location thereof” value in series [1] is given as “kidney, clear cell renal cell carcinoma, colon, adenocarcinoma”. Besides, in the series on primary AML samples, the “Number of positive AMLs” value was 3.

Regarding “544 (TEGQFVDLTGNRLTYT; listed as Homo sapiens) [compound 544]”, in series [1], the “Proliferative disease and location thereof” value is reported as “liver, hepatocellular carcinoma, cancer, liver, focal nodular hyperplasia”. For the same substance, in the series on primary AML samples, the “Number of positive AMLs” value is on record as 3.

Regarding “546 (ALDFFGNGPPVNYKTG; listed as Homo sapiens) [compound 546]”, the “Proliferative disease and location thereof” value in series [1] is recorded as “lung, non-small cell lung carcinoma, bone, non- ossifying fibroma”. Also, the “Number of positive AMLs” value in the series with primary AML samples is 1.

For the substance “547 (DFFGNGPPVNYKTG; listed as Homo sapiens) [compound 547]”, in series [1], the “Proliferative disease and location thereof” value was “lung, non-small cell lung carcinoma, bone, non- ossifying fibroma”. Moreover, the “Number of positive AMLs” value with primary AML samples was 2.

On to “548 (LDFFGNGPPVNYK; listed as Homo sapiens) [compound 548]”, for which, in series [1], the “Proliferative disease and location thereof” value was “lung, non-small cell lung carcinoma, bone, non- ossifying fibroma”. The “Number of positive AMLs” value in the series on primary AML samples is 1.

Take “549 (LDFFGNGPPVNYKTG; listed as Homo sapiens) [compound 549]”: the “Proliferative disease and location thereof” value in series [1] is “lung, non-small cell lung carcinoma, bone, non- ossifying fibroma”. Besides, in the series on primary AML samples, the “Number of positive AMLs” value was 1.

In the case of “550 (QALDFFGNGPPVNYKTG; listed as Homo sapiens) [compound 550]”, the “Proliferative disease and location thereof” value in series [1] was “lung, non-small cell lung carcinoma, bone, non- ossifying fibroma”. Moreover, in the series with primary AML samples, the “Number of positive AMLs” value is 1.

“551 (AISDYVFNTASLVYH; listed as Homo sapiens) [compound 551]”: the “Proliferative disease and location thereof” value in series [1] was “liver, hepatocellular carcinoma, cancer”. Further, in the series with primary AML samples, the “Number of positive AMLs” value was 1.

For the substance “552 (AISDYVFNTASLVYHEE; listed as Homo sapiens) [compound 552]”, in series [1], the “Proliferative disease and location thereof” value is recorded as “liver, hepatocellular carcinoma, cancer”. In addition, in the series with primary AML samples, the “Number of positive AMLs” value came to 2.

As to “553 (ISDYVFNTASLVYH; listed as Homo sapiens) [compound 553]”, the “Proliferative disease and location thereof” value in series [1] is recorded as “liver, hepatocellular carcinoma, cancer”. Further, the “Number of positive AMLs” value in the series with primary AML samples was 1.

Take “554 (ISDYVFNTASLVYHEE; listed as Homo sapiens) [compound 554]”: the “Proliferative disease and location thereof” value in series [1] is listed as “liver, hepatocellular carcinoma, cancer”. Moreover, the “Number of positive AMLs” value with primary AML samples came to 3.

With “555 (YVFNTASLVYHEE; listed as Homo sapiens) [compound 555]”, the “Proliferative disease and location thereof” value in series [1] is given as “liver, hepatocellular carcinoma, cancer”. For the same substance, the “Number of positive AMLs” value with primary AML samples stood at 1.

Take “556 (IVIALSGNKADLA; listed as Homo sapiens) [compound 556]”: the “Proliferative disease and location thereof” value in series [1] is “brain, glioblastoma, endometrium, adenocarcinoma”. Besides, the “Number of positive AMLs” value in the series on primary AML samples is on record as 1.
